Reference: PubChem BioAssay AID493014 (National Center for Advancing Translational Sciences (NCATS), 2011)
Values joined by “and” are separate entries in the source; they are usually repeats but may differ in a detail not shown here. Equal entries are not always repeated. Some of the results follow. Shown are side measurements of this screen, not its main read-out; they come without a call. The list favours compounds with an active or inconclusive main result. Potencies come from curve fits of mixed quality, noted in brackets.

Test: qHTS Assay to Find Inhibitors of Chronic Active B-Cell Receptor Signaling
Conditions: ABC-DLBCL IkBa-CBG/CBR reporter, luminescence ratio (green luciferase fused to IkBa over red control in TMD8 lymphoma cells), 4 h
Procedure, shortened: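 TMD8 human ABC-DLBCL cells with doxycycline-inducible IκBα–green luciferase fusion and unfused red luciferase, in 0.5% FBS medium; compounds up to 46 uM, 4 h at 37C. Green/red luminescence ratio, filter-overlap corrected, fitted to concentration-response curves.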

[1] = measured here: CBR red luminescence, cell number
[2] = measured here: IkBa-CBG green luminescence

Row | SMILES | AC50 [1] | AC50 [2]
1 | CC(=NCCCN1CCOCC1)c1c(O)n(-c2ccccc2C)c(=O)[nH]c1=O | 23.1 µM [rising, single point] | –
2 | C[C@H]1CCC/C=C/[C@@H]2C[C@H](O)C[C@H]2[C@H](O)/C=C/C(=O)O1 | 231 nM [falling, full curve] and 580 nM [falling, full curve] | –
3 | CC(C)C12CN3CCN(CC(C3)/C1=N\O)C2 | 18.4 µM [rising, partial curve, poor fit] | –
4 | CC1(C)C[C@H]2C=C(C=O)[C@]3(C=O)C[C@]3(C)[C@H]2C1 | 4.61 µM [falling, full curve] | 5.8 µM [rising, full curve]
5 | Cc1ccc(C(=O)Nc2ccc3ncccc3c2)cc1 | 14.1 µM [falling, single point] | –
6 | O=C(NCCN1CCN(c2ccccc2)CC1)Nc1ccc(Cl)cc1 | 14.1 µM [rising, partial curve, poor fit] | –
7 | CCOc1cc(C2C(C#N)=C(N)Oc3c2c(=O)oc2ccccc32)ccc1OC(=O)c1cccs1 (stereo not given) | 20.6 µM [falling, partial curve] | –
8 | Cc1ccc(S(=O)(=O)c2nc(-c3ccccc3Cl)oc2N(C)C2CCN(C)CC2)cc1 | 14.6 µM [falling, single point] | –
9 | COCCO[C@H]1CCC2C3CC=C4C[C@@H](O)CC[C@]4(C)C3CC[C@@]21C (stereo not given in full) | 25.9 µM [rising, single point] | –
10 | CC/C(=N\Nc1ccccc1)c1c(O)n(C)c(=O)n(C)c1=O | 10.3 µM [falling, partial curve, poor fit] | –
11 | O=C1c2ccccc2C(=O)N1SC1CCCCC1 | 22.4 µM [falling, single point] | –
12 | CC(C)CCCn1c(O)c(/C=C2/C=CC=N2)c(=O)[nH]c1=O | 16.4 µM [rising, partial curve] | 20.6 µM [falling, partial curve, poor fit]
13 | CC(C)=CCC12CN3CCN(CC(C3)C1=O)C2 | 7.31 µM [falling, single point] | –
14 | COC(=O)C(C)n1nnc2sc(-c3ccccc3)cc2c1=O (stereo not given) | 10 µM [falling, partial curve, poor fit] | –
15 | O=C(Nc1ccc(OC(F)(F)F)cc1)Oc1ccccc1N1CCOCC1 | 35.5 µM [falling, single point] | –
16 | CC(C)Sc1ncnc2c1oc1ccccc12 | 14.1 µM [rising, single point] | –
17 | Cc1ccccc1N1C(=O)NC(=O)/C(=C\c2cnn(-c3ccccc3)c2)C1=O | 20.6 µM [rising, partial curve] | –
18 | COc1ccc(CC(C)NC2CCCCCC2)cc1 (stereo not given) | 11.2 µM [rising, single point] | –
19 | Cc1cc(C)cc(N2C(=O)NC(=O)/C(=C\c3cccn3-c3ccccc3)C2=O)c1 | 29.1 µM [rising, single point] | –
20 | O=C(C[N+]12CCC(CC1)C(O)C2)c1ccc(Br)cc1 (stereo not given) | 0.501 µM [rising, full curve, poor fit] | –

Quoted from the listing:
Value of CC1(C)C[C@H]2C=C(C=O)[C@]3(C=O)C[C@]3(C)[C@H]2C1 under AC50 [2]: 5.8 µM [rising, full curve]
Value of CCOc1cc(C2C(C#N)=C(N)Oc3c2c(=O)oc2ccccc32)ccc1OC(=O)c1cccs1 (stereo not given) under AC50 [1]: 20.6 µM [falling, partial curve]
Value of COC(=O)C(C)n1nnc2sc(-c3ccccc3)cc2c1=O (stereo not given) under AC50 [1]: 10 µM [falling, partial curve, poor fit]

Continuation:

Row | SMILES | AC50 [1] | AC50 [2]
21 | Cn1c(=O)oc2cc(S(=O)(=O)N3CCC(C(=O)N4CCN(c5ccc(F)cc5)CC4)CC3)ccc21 | 15.8 µM [falling, partial curve, poor fit] | –
22 | CCOP(=O)(OCC)C(NC(=O)c1cccc([N+](=O)[O-])c1)C(Cl)(Cl)Cl (stereo not given) | 6.31 µM [rising, single point] | –
23 | O=c1oc(-c2ccc(Cl)c(Cl)c2)nn1-c1ccc(C(F)(F)F)cn1 | 2 µM [rising, partial curve, poor fit] | –
24 | COc1ccc(NC(=O)N2CCC3(CC2)OCCO3)cc1 | 31.6 µM [rising, single point] | –
25 | CCC1CCCCN1CC(=O)c1ccc(OC(F)F)cc1 (stereo not given) | 29.1 µM [rising, single point] | 29.1 µM [falling, single point]
26 | CCC(=NCCOc1ccc(Cl)cc1)c1c(O)n(C)c(=O)n(C)c1=O | 20.6 µM [falling, partial curve, poor fit] | –
27 | COc1ccc2c(c1)c(C(=O)CN1CCC3(CC1)OCCO3)c(C)n2Cc1ccccc1 | 0.126 µM [rising, full curve, poor fit] | –
28 | CCCCOc1ccc(CN2CCN(CCO)CC2)cc1 | 29.1 µM [rising, single point] | –
29 | O=c1c(/C=N/N2CCOCC2)c(O)n(-c2ccccc2)c(=S)n1-c1ccccc1 | 25.9 µM [falling, single point] | –
30 | CC(C)OC1CCCC(O)C1CC(=O)O (stereo not given) | 14.1 µM [rising, single point] | –
31 | C=CCN1C(=O)C2(C(C(=O)OCC)=C(N)Oc3ccccc32)c2c1c1ccccc1oc2=O (stereo not given) | 0.461 µM [falling, partial curve] | –
32 | O=c1[nH]c(=O)n(-c2ccccc2F)c(O)c1/C=C1\C=Nc2ccccc21 | 35.5 µM [rising, single point] | 31.6 µM [falling, single point]
33 | NCCNc1ccc([N+](=O)[O-])c2cccnc12 | 11.2 µM [falling, partial curve, poor fit] | –
34 | Cn1cccc1/C=C1\C(=O)NC(=O)N(CCC2=CCCCC2)C1=O | 6.51 µM [rising, single point] | –
35 | Cc1nc2ccccc2c(=O)n1-c1cccc(O)c1 | 29.1 µM [rising, single point] | –
36 | O=C1NC(=O)C(=Cc2ccc(Sc3ccccc3)o2)C(=O)N1 | 31.6 µM [rising, single point] | –
37 | COC(=O)c1ccc2nc(NC(=O)C3CCCCC3)sc2c1 | 0.708 µM [falling, full curve, poor fit] | –
38 | COC(=O)C(O)(c1ccc(NC(=O)Oc2ccccc2)cc1)C(F)(F)F (stereo not given) | 16.4 µM [rising, single point] | –
39 | CN1C(=O)C(=CN2CCN(C(=O)c3ccco3)CC2)C(=O)N(C)C1=S | 29.1 µM [falling, single point] | –
40 | COc1ccc(C2=CC(c3ccc(OC)c(OC)c3)c3c(c4ccccc4oc3=O)O2)cc1OC (stereo not given) | 12.6 µM [falling, partial curve, poor fit] | 12.6 µM [falling, single point]
